Record: PubChem BioAssay AID504791 (Drosophila RNAi Screening Center, 2011)

- Aim: 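Genes whose knock-down strengthens or weakens small-RNA reporter silencing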 (primary screen)
- Cell system: Drosophila S2-derived reporter cells
- Reagents: long dsRNA against Drosophila genes, about 150-250 ng dsRNA per well (siRNA assay); about 80-120 ng (miRNA assay)
- Duration: about 5 days (siRNA assay); about 4 days (miRNA assay)
- Conditions: copper sulfate induction of reporters: 25 µM (siRNA assay); 200 mM stated (miRNA assay), 1-2 days before reading
- Measured: 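Per-well ratio of Renilla over firefly light, expressed relative to that plate's average ratio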
- Units: stable assay Renilla, run 1 in luminescence; stable assay firefly, run 1 in luminescence
- Rule for the call: 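a well was a first-pass pick when its plate-scaled ratio rose above 1.5 (siRNA assay) or 1.6 (miRNA assay), or dropped below 0.6; a gene counted only if two separate dsRNAs agreed on retest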
The screen tested about 23,000 reagents; below is an unselected part of those that have a named target and a result. Over the whole deposit, 199 (0.86%) were called active. 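Plate-scaled ratios behind the calls are not deposited; printed light signals are raw; many rows marked increased or decreased are still called inactive.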 Names joined by + are all predicted targets of the reagent. Not stated in the record: the direction of the score.

With LysP (Lysozyme P) [DRSC08676], what was measured?
stable assay Renilla, run 1: 6471; stable assay firefly, run 1: 3.81e5; outcome: inactive

What did the screen give for CG8042 [DRSC09676]?
stable assay Renilla, run 1: 6552; stable assay firefly, run 1: 3.50e5; outcome: inactive

For PyK (Pyruvate kinase) [DRSC16806], what does the deposit list?
stable assay Renilla, run 1: 6276; stable assay firefly, run 1: 2.87e5; outcome: inactive

What did the screen give for CG14451 [DRSC11708]?
stable assay Renilla, run 1: 7370; stable assay firefly, run 1: 3.95e5; outcome: inactive

What is on record for spn-B (spindle B) [DRSC17063]?
stable assay Renilla, run 1: 6883; stable assay firefly, run 1: 4.73e5; outcome: inactive

With CG3419 (retired record) [DRSC04368], what does the deposit list?
stable assay Renilla, run 1: 6955; stable assay firefly, run 1: 5.12e5; outcome: inactive

With CG3419 (retired record) [DRSC04369], what was measured?
miRNA reporter change: reporter ratio lowered past the hit cutoff; stable assay Renilla, run 1: 5496; stable assay firefly, run 1: 3.36e5; outcome: inactive

What did the screen give for CG14260 [DRSC14755]?
stable assay Renilla, run 1: 5851; stable assay firefly, run 1: 3.39e5; outcome: inactive

With polo [DRSC11384], what was measured?
stable assay Renilla, run 1: 4331; stable assay firefly, run 1: 3.87e5; outcome: inactive

How did the screen score polo [DRSC22359]?
stable assay Renilla, run 1: 9598; stable assay firefly, run 1: 6.14e5; outcome: inactive

For CG42562 [DRSC06453], what does the deposit list?
stable assay Renilla, run 1: 6570; stable assay firefly, run 1: 3.72e5; outcome: inactive

What did the screen give for Os-C [DRSC16778]?
stable assay Renilla, run 1: 6822; stable assay firefly, run 1: 4.62e5; outcome: inactive

With Prestin [DRSC10507], what was measured?
stable assay Renilla, run 1: 7284; stable assay firefly, run 1: 2.82e5; outcome: inactive

For CG11722 [DRSC14358], what does the deposit list?
stable assay Renilla, run 1: 7918; stable assay firefly, run 1: 5.94e5; outcome: inactive

What is on record for mthl1 (methuselah-like 1) [DRSC19905]?
stable assay Renilla, run 1: 5024; stable assay firefly, run 1: 4.31e5; outcome: inactive

With TwdlN (TweedleN) [DRSC15813], what does the deposit list?
stable assay Renilla, run 1: 6611; stable assay firefly, run 1: 5.34e5; outcome: inactive

What did the screen give for kairos [DRSC19972]?
stable assay Renilla, run 1: 6943; stable assay firefly, run 1: 4.35e5; outcome: inactive

With kairos [DRSC23286], what was measured?
stable assay Renilla, run 1: 2976; stable assay firefly, run 1: 2.74e5; outcome: inactive

For Spp (Signal peptide peptidase) [DRSC00328], what was measured?
stable assay Renilla, run 1: 12887; stable assay firefly, run 1: 5.61e5; outcome: inactive

Which result is listed for CG12715 [DRSC19492]?
stable assay Renilla, run 1: 5604; stable assay firefly, run 1: 4.16e5; outcome: inactive

For CG5435 [DRSC02860], what was measured?
stable assay Renilla, run 1: 7308; stable assay firefly, run 1: 3.76e5; outcome: inactive

Which result is listed for CG11791 [DRSC14391]?
stable assay Renilla, run 1: 9539; stable assay firefly, run 1: 3.73e5; outcome: inactive

With Prosbeta2R1 (Proteasome beta2 subunit-related 1) [DRSC18154], what does the deposit list?
stable assay Renilla, run 1: 4436; stable assay firefly, run 1: 2.70e5; outcome: inactive

With CG10444 [DRSC05990], what does the deposit list?
stable assay Renilla, run 1: 8962; stable assay firefly, run 1: 3.77e5; outcome: inactive

With NKAIN (Na,K-ATPase Interacting) [DRSC04531], what was measured?
stable assay Renilla, run 1: 11816; stable assay firefly, run 1: 1.60e6; outcome: inactive

With NKAIN (Na,K-ATPase Interacting) [DRSC22470], how do the results read?
stable assay Renilla, run 1: 3039; stable assay firefly, run 1: 3.32e5; outcome: inactive

How did the screen score Mst57Da + alpha4GT2 [DRSC13732]?
stable assay Renilla, run 1: 7587; stable assay firefly, run 1: 5.84e5; outcome: inactive

How did the screen score epsilonTry (epsilonTrypsin) [DRSC07611]?
stable assay Renilla, run 1: 6798; stable assay firefly, run 1: 4.38e5; outcome: inactive

With mRpS5 (mitochondrial ribosomal protein S5) [DRSC21380], what does the deposit list?
stable assay Renilla, run 1: 8727; stable assay firefly, run 1: 5.15e5; outcome: inactive

How did the screen score CG34251 [DRSC09498]?
stable assay Renilla, run 1: 5604; stable assay firefly, run 1: 4.01e5; outcome: inactive

With CG34251 [DRSC09500], how do the results read?
stable assay Renilla, run 1: 6908; stable assay firefly, run 1: 5.04e5; outcome: inactive

For CG11000 [DRSC12158], what was measured?
stable assay Renilla, run 1: 6274; stable assay firefly, run 1: 4.58e5; outcome: inactive

For CG32856 [DRSC13124], what was measured?
stable assay Renilla, run 1: 4483; stable assay firefly, run 1: 4.36e5; outcome: inactive

What did the screen give for Fst (Frost) [DRSC16491]?
stable assay Renilla, run 1: 8337; stable assay firefly, run 1: 5.60e5; outcome: inactive

With CG7457 [DRSC10849], what was measured?
stable assay Renilla, run 1: 6992; stable assay firefly, run 1: 3.94e5; outcome: inactive

4 entries from above in another layout.
Mst57Da + alpha4GT2 [DRSC13732]
- stable assay Renilla, run 1: 7587
- stable assay firefly, run 1: 5.84e5
- outcome: inactive

epsilonTry (epsilonTrypsin) [DRSC07611]
- stable assay Renilla, run 1: 6798
- stable assay firefly, run 1: 4.38e5
- outcome: inactive

mRpS5 (mitochondrial ribosomal protein S5) [DRSC21380]
- stable assay Renilla, run 1: 8727
- stable assay firefly, run 1: 5.15e5
- outcome: inactive

CG34251 [DRSC09498]
- stable assay Renilla, run 1: 5604
- stable assay firefly, run 1: 4.01e5
- outcome: inactive
